Among the data in publication PMC3232189 are binding values, retold here.

Chains of the proteins cited; added tags and fusions are not shown.
UniProt Q8VEK3: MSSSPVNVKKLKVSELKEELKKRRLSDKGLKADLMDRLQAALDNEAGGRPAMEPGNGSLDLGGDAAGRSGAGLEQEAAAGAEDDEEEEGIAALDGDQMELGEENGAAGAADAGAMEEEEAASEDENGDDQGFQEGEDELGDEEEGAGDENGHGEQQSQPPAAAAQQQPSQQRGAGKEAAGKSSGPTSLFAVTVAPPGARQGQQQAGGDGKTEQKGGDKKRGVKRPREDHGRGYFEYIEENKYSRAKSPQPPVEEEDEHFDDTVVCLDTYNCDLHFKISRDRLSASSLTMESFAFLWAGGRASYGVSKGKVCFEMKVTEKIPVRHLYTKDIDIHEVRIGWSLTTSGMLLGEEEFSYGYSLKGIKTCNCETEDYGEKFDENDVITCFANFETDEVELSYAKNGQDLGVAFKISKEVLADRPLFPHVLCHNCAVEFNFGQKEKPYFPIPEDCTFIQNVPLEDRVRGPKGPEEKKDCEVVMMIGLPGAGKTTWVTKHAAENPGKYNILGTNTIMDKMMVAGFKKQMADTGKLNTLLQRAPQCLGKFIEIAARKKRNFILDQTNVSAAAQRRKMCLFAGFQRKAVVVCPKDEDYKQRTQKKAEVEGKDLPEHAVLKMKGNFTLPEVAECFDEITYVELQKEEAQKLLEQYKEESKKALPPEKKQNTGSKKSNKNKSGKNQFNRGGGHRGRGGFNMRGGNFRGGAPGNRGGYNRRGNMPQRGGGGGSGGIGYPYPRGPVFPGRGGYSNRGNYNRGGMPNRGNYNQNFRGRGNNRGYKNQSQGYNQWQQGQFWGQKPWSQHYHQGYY
UniProt Q3TKT4: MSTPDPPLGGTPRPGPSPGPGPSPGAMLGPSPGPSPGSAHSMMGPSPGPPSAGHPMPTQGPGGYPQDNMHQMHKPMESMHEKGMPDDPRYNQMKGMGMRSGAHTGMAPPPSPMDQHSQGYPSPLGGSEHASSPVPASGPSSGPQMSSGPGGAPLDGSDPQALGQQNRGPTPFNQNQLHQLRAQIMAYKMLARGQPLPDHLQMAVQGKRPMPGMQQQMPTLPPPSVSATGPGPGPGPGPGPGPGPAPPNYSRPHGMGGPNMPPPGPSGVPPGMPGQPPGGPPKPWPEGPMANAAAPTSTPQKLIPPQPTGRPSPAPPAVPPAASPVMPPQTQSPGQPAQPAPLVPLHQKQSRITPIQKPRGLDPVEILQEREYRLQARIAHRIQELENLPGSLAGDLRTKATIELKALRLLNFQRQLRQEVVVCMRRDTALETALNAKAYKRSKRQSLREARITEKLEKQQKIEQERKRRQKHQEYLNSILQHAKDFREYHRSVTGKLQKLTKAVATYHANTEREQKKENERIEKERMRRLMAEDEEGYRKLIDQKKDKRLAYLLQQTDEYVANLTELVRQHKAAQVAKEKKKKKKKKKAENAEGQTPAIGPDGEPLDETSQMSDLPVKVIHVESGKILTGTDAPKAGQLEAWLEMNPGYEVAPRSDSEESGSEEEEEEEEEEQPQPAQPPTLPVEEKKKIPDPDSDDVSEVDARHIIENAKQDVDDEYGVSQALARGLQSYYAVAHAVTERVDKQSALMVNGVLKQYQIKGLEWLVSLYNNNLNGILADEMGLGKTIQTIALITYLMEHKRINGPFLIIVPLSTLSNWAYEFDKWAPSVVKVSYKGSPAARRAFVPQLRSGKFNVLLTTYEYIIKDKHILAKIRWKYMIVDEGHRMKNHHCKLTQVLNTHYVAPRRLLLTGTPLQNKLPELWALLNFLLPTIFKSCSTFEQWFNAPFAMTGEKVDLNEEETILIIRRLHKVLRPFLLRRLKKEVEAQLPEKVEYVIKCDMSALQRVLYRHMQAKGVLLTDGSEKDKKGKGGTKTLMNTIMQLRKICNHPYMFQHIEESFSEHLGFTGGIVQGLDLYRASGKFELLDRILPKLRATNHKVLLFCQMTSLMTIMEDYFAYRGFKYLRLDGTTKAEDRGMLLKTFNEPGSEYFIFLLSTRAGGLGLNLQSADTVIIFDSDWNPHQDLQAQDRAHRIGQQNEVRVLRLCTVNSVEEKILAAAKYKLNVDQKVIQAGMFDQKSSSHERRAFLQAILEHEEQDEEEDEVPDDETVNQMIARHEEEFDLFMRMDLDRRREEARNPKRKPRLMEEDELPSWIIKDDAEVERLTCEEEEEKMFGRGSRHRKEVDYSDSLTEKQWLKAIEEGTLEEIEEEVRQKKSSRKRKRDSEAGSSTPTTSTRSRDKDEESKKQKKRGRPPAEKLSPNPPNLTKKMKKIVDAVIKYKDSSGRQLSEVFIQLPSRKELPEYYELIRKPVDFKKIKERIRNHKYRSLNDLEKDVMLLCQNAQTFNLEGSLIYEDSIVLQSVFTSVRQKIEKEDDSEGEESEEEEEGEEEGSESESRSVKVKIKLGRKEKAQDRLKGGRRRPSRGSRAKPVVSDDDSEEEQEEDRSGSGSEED

No constants are given. Whether binding was seen depends on the method and setting. Binding seen in cells or lysates may run through a third protein. Some results given as binding are weak or reduced against the parent protein; the word gives no strength.

Test [1] concerns the target Scaffold attachment factor A (SAF-A) (mouse (endogenous in R1 mES cells)) (UniProt Q8VEK3). Description: proximity ligation; Duolink in situ PLA on fixed, permeabilised cells, confocal microscopy; pluripotent mES cells (+LIF), RNase A treated cells, and cells induced to differentiate (-LIF or +RA).
Test [2] has the same target. Nature of the test: co-IP; total mES cell extract; cells treated with 5 mM DTBP before lysis (50 mM Tris-HCl pH 7.5, 0.15 M NaCl, 1% Triton X-100, 5 mM EDTA); anti-SAF-A with Protein A/G PLUS-Agarose overnight at +4°C; Western blot with anti-SAF-A and anti-BRG1; extract untreated or treated with RNase A (0.1 µg/µl, 30 min). For orientation: A western blot detects proteins with antibodies after separation by electrophoresis.

As for “Brahma Related Gene 1 (BRG1) (from UniProt Q3TKT4 1-1613)”, the binding result in test [1] and in test [2] was “binds” each time.
